Assay results from PubChem BioAssay AID504850 (National Center for Advancing Translational Sciences (NCATS), 2011).
Out of some 2,300 compounds screened, about 1,200 (52%) were called active. So high a share suggests a set chosen from earlier hits. Inconclusive results, whose numbers are uncertain, are shown with a selection of clear calls. Calls come from the whole dose curve; as a rule, active = well fitted inhibition curve with a large enough effect; inconclusive = small, poorly fitted or top-dose-only effect, or effect the other way; inactive = no such curve, though single readings can be large or run the other way. Where the call is inconclusive, the potency comes from a doubtful curve fit.

test: Confirmation screen for delayed death inhibitors of the malarial parasite plastid, 48 hour incubation; note: nearly all actives have a fitted effect of over 65% in size; conditions: P. falciparum-infected erythrocytes, luciferase growth; series mostly up to 28.7 µM; activity change, negative = inhibition: at the top concentration
Method in brief: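 Erythrocytes infected with luciferase-expressing P. falciparum (2% hematocrit, 0.1% parasitemia) incubated with compounds 48 hours at 37 C, 5% CO2, in RPMI/Albumax. Growth inhibition scored as reduced luminescence after detection reagent.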
% is set by controls: 0 for no effect and ±100 for the full control effect; potency is the fitted concentration of half-maximal effect.

Compound	Potency	activity change, negative = inhibition
COc1ccc(C(=O)NC2CC2)cc1OC1CCN(C/C=C/c2ccccc2)CC1	active: 8.91 µM	–
CN(C)c1ccc(O)c2c1CC1CC3[C@@H](N(C)C)C(=O)C(C(N)=O)=C(O)[C@]3(O)C(=O)C1=C2O (some centres not stated)	active: 2.24 µM	–
CCC1S/C(=N/N=C/c2ccco2)N(Cc2ccccc2)C1=O (configuration not stated)	active: 14.1 µM	–
C=CCNC(=O)c1cnc2n(c1=O)CCS2	–	inactive: -0.495%
O=C(Nc1ncc(Cc2ccccc2Cl)s1)C1CCCO1 (configuration not stated)	inconclusive: 7.94 µM [activator, partial curve]	–
Cc1cccc(C(=O)Nc2ccc3ccccc3c2)c1	inconclusive: 1.78 µM [activator, full curve]	–
CCc1nn2c(=O)cc(COc3cccc(NC(=O)c4ccco4)c3)nc2s1	inconclusive: 12.6 µM [inhibitor, partial curve, poor fit]	–
Cc1ncoc1C(=O)NC1CC(C)(C)Cc2c1cnn2-c1ccccc1 (configuration not stated)	inconclusive: 12.6 µM [inhibitor, partial curve, poor fit]	–
O=C(Cc1cn2ccsc2n1)Nc1nc2c(s1)CCCC2	–	inactive: -7.92%
C=CCN=c1scc(-c2ccccc2)n1/N=C/c1ccccn1	inconclusive: 10 µM [inhibitor, partial curve, poor fit]	–
CC1CCN(C(=O)C2CCN(c3ncnc4c3nc3n4CCCCC3)CC2)CC1	inconclusive: 14.1 µM [inhibitor, single point]	–
O=c1[nH]c(C(F)(F)F)nc2ccc3ccccc3c12	–	inactive: -8.91%
CCOc1ccc2nc(NCCNC(=O)C(C)C)c(C)cc2c1	inconclusive: 22.4 µM [inhibitor, single point]	–
CC1CCC(NC(=O)CN(C)S(=O)(=O)c2ccc3c(c2)c(=O)n(C)c(=O)n3C)CC1 (configuration not stated)	active: 10 µM	–
Nc1cccc2c1C(=O)N(C(=O)/C=C/c1ccc(F)cc1)C2=O	–	inactive: -27.2%
O=c1c2ccccc2nc(-c2ccoc2)n1CCc1ccccc1	inconclusive: 1.12 µM [inhibitor, partial curve, poor fit]	–
Cc1cccc(C(=O)N2CCCC(CCC(=O)N3CCN(c4ccccn4)CC3)C2)c1 (configuration not stated)	inconclusive: 14.1 µM [inhibitor, partial curve, poor fit]	–
Cc1cc(C)cc(NC(=O)c2cc(S(=O)(=O)NCc3ccco3)ccc2F)c1	inconclusive: 14.1 µM [inhibitor, partial curve, poor fit]	–
CC(C)(C)NC(=O)CSc1nnc(-c2ccccc2)c(-c2ccccc2)n1	inconclusive: 12.6 µM [inhibitor, partial curve, poor fit]	–
CCOc1ccc(Cl)cc1C1=CC(=O)C[C@H](c2ccc(OC)cc2)C1	active: 14.1 µM	–
COC(=O)C(=C/C(C)=C/c1cccs1)C(=O)OC	inconclusive: 15.8 µM [inhibitor, single point]	–
O=C1CS/C(=N/N=C\c2ccn[nH]2)N1	inconclusive: 12.6 µM [inhibitor, partial curve, poor fit]	–
CCOc1ccc(/C=C2\SC(=S)N(C(C(=O)O)c3ccccc3)C2=O)cc1OC (configuration not stated)	–	inactive: 0.811%
O=C(O)c1cc(-c2ccc3ccccc3c2)nc2ccc(F)cc12	–	inactive: -26.3%

Compound	Potency	activity change, negative = inhibition
O=C(NCCN1CCOCC1)c1ccc(Cl)c(S(=O)(=O)N2CCCCC2)c1	inconclusive: 12.6 µM [inhibitor, partial curve, poor fit]	–
O=c1oc2ccccc2c(O)c1CN1CCCCC1	–	inactive: 18.3%
CCC1=Nc2cc(C(=O)NCCN3CCCC3)ccc2Sc2ccccc21	inconclusive: 15.8 µM [inhibitor, single point]	–
CC(=O)c1ccc(OCC(=O)Nc2cccc(S(=O)(=O)N3CCCC3)c2)cc1	inconclusive: 25.1 µM [inhibitor, single point]	–
COC(=O)Cc1[nH]n(-c2nc3ccccc3s2)c(=O)c1C(C)=Nc1ccc(OC)cc1	inconclusive: 14.1 µM [inhibitor, single point]	–
CCOc1ncccc1C(=O)Nc1ccc(-c2cn3ccsc3n2)cc1	inconclusive: 0.631 µM [inhibitor, full curve]	–
CCN(Cc1ccccc1)C(=O)CSc1ncn[nH]1	–	inactive: -18.7%
COc1cccc(/C=C/C(=O)c2ccc(NS(=O)(=O)c3ccc(C)cc3)cc2)c1	inconclusive: 14.1 µM [inhibitor, single point]	–
CC(=O)c1c(C)[nH]c(C(=O)COC(=O)COc2ccccc2F)c1C	–	inactive: -4.9%
CCC(C)[C@H](NC(=O)NCCCOC(C)C)C(=O)OC (some centres not stated)	–	inactive: 0.984%
O=c1[nH]c(=O)n(Cc2ccco2)c2c1C(C(F)(F)F)(C(F)(F)F)N=C(CCc1ccccc1)N2	active: 11.2 µM	–
COc1ccc(NC(=S)N2CCC(Cc3ccccc3)CC2)cc1OC	inconclusive: 0.282 µM [inhibitor, partial curve, poor fit]	–
Cc1cccc(CCNC(=O)CNS(=O)(=O)c2ccc3nc(C)sc3c2)c1	inconclusive: 2.82 µM [inhibitor, partial curve]	–
Cc1ccc(N2CC(O)(c3cccs3)[N+]3=C2CCCC3)cc1 (configuration not stated)	inconclusive: 14.1 µM [inhibitor, partial curve]	–
CCCOc1cc(N)ccc1C(=O)OCCN(CC)CC	inconclusive: 10 µM [inhibitor, single point]	–
O=[N+]([O-])c1ccc(C(O)C[n+]2ccccc2)cc1 (configuration not stated)	inconclusive: 12.6 µM [inhibitor, single point]	–
COc1ccc(C(=O)CSc2nc3ccc([N+](=O)[O-])cc3[nH]2)cc1	inconclusive: 14.1 µM [inhibitor, single point]	–
O=C(CCN1C(=O)/C(=C/c2ccccc2Cl)SC1=S)N1CCOCC1	active: 15.8 µM	–
CCn1c(SCC(=O)N2CCCCCC2)nc2c(c1=O)SCC2	inconclusive: 14.1 µM [inhibitor, partial curve]	–
COc1ccc(N/C=C2/CCCCC2=O)cc1	inconclusive: 15.8 µM [inhibitor, partial curve, poor fit]	–
O=C(COC(=O)C1C2CC3OC(=O)C1C3C2)Nc1ccccc1 (configuration not stated)	–	inactive: 6.71%
COc1ccccc1NC(=O)c1ccc(S(=O)(=O)NCc2ccco2)cc1	–	inactive: -9.3%
Cc1ncoc1C(=O)NC1CC(C)(C)Cc2c1cnn2-c1ccc(F)cc1 (configuration not stated)	inconclusive: 2.82 µM [inhibitor, full curve, poor fit]	–
CN(c1ccc(OCC(=O)Nc2ccccc2C(=O)O)cc1)S(=O)(=O)c1ccc(Cl)cc1	inconclusive: 22.4 µM [inhibitor, single point]	–

Entries of single compounds, quoted from the list. Order of values: Potency | activity change, negative = inhibition
CN(C)c1ccc(O)c2c1CC1CC3[C@@H](N(C)C)C(=O)C(C(N)=O)=C(O)[C@]3(O)C(=O)C1=C2O (some centres not stated) is listed with active: 2.24 µM | –
CCOc1ccc(Cl)cc1C1=CC(=O)C[C@H](c2ccc(OC)cc2)C1 is listed with active: 14.1 µM | –
CC(C)(C)NC(=O)CSc1nnc(-c2ccccc2)c(-c2ccccc2)n1 is listed with inconclusive: 12.6 µM [inhibitor, partial curve, poor fit] | –
CCC(C)[C@H](NC(=O)NCCCOC(C)C)C(=O)OC (some centres not stated) is listed with – | inactive: 0.984%

Next compounds.

Compound	Potency	activity change, negative = inhibition
CC(C)(C)n1nnnc1C(c1ccc2ncccc2c1)N1CCSCC1 (configuration not stated)	inconclusive: 11.2 µM [inhibitor, partial curve, poor fit]	–
COc1ccccc1NC(=O)c1oc2ccccc2c1NC(=O)C1CC1	active: 8.91 µM	–
COC(=O)c1ccc(NC(=O)C[n+]2ccccc2)cc1	inconclusive: 15.8 µM [inhibitor, single point]	–
COc1ccc(NC(=O)C#Cc2ccccc2)cc1	inconclusive: 12.6 µM [inhibitor, partial curve, poor fit]	–
Fc1ccccc1C1c2[nH]c3ccccc3c2CCN1Cc1cccn1-c1ncccn1 (configuration not stated)	inconclusive: 15.8 µM [inhibitor, single point]	–
CCCc1cc(=O)n2nc(N3CCC(C(=O)NCc4ccc(C)o4)CC3)sc2n1	inconclusive: 7.08 µM [inhibitor, partial curve, poor fit]	–
O=C(CCNS(=O)(=O)c1cccc2nonc12)NCCc1ccc(Cl)cc1	inconclusive: 12.6 µM [inhibitor, partial curve, poor fit]	–
Cc1onc(-c2c(Cl)cccc2Cl)c1C(=O)Nc1nc(C(C)(C)C)cs1	active: 11.2 µM	–
O=C(Nc1ccc(S(=O)(=O)NCc2ccco2)cc1)c1ccc2ccccc2n1	inconclusive: 14.1 µM [inhibitor, single point]	–
C/C(=N\NC(=S)Nc1cccc(C)c1)c1ccccc1	inconclusive: 15.8 µM [inhibitor, single point]	–
CN(CCc1ccccn1)C(=O)c1ccc(OC2CCN(CCc3ccccc3)CC2)cc1	active: 14.1 µM	–
CC(=O)c1ccc(NC(=S)Nc2ccc3cn[nH]c3c2)cc1	–	inactive: 5.49%
Cc1sc2nc[nH]c(=O)c2c1-c1ccc(Cl)cc1	–	inactive: -18.2%
COc1ccc(/C=N/NC(=O)c2cc(-c3ccccc3OC(C)C)nc3ccccc23)cc1CN1CCOCC1	–	inactive: -26.3%
Cc1ccc(C(=O)OCc2nnc(-c3ccc(Br)cc3)o2)cc1	–	inactive: -7.51%
CCC(C(=O)NCCc1ccccc1OC)n1nc(C)c2c(C)n(-c3ccccc3)nc2c1=O (configuration not stated)	inconclusive: 12.6 µM [inhibitor, partial curve]	–
C=CCC1(O)C(=O)N2C(=C1C(=O)OCC)c1ccc3ccccc3c1CC2(C)C (configuration not stated)	active: 11.2 µM	–
N#C/C(=C\c1ccccn1)c1ccccn1	active: 11.2 µM	–
COc1ccc(C(=O)CSc2nnc(C3CCCCC3)n2N)c(OC)c1	active: 8.91 µM	–
O=C(NC1CCCC1)C1CC(=O)N(CCc2ccccc2)C1 (configuration not stated)	–	inactive: -10.8%
Cc1cc(C(C)(C)C)cc(C)c1CCNC(=O)c1c(C)noc1C	active: 12.6 µM	–
COc1cc(/C=C/C(=O)c2ccc(C)cc2)ccc1OCC#N	inconclusive: 15.8 µM [inhibitor, single point]	–
COc1ccc(OC)c(CCNC(=O)CCn2nc(C)c3c(C)n(-c4ccccc4)nc3c2=O)c1	inconclusive: 5.62 µM [inhibitor, full curve]	–
O=C(CNCc1ccccc1Cl)Nc1ccc(C(=O)N2CCCCC2)cc1	inconclusive: 15.8 µM [inhibitor, single point]	–
